Source: publication PMC10101649
Results are given in words; binding and its absence hold for the method and conditions named. Binding seen in cells or lysates may run through a third protein. Some results given as binding are weak or reduced against the parent protein; the word gives no strength. Sequences can lack the tags named with a protein.

Biological target: T1, CDPK16-nLUC (Arabidopsis) (UniProt Q7XJR9)
T1 sequence: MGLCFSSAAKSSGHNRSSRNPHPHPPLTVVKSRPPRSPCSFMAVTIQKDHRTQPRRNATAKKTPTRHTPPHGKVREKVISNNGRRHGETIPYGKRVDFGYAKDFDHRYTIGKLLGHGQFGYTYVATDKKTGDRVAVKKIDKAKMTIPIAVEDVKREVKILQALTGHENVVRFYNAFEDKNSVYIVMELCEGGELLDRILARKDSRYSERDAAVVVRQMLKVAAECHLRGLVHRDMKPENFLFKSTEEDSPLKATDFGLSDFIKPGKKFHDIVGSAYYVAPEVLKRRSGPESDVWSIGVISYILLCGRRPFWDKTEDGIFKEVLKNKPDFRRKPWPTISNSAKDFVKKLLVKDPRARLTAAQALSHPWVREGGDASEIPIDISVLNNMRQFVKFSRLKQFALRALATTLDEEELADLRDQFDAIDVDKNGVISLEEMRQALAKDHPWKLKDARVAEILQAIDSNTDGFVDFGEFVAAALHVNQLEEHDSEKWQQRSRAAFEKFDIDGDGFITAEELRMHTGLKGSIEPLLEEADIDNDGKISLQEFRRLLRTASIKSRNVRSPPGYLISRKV
Assay: split reporter; luciferase complementation imaging (LCI): CDPK16-nLUC and cLUC-ADF7 co-infiltrated into N. benthamiana leaves, 48 to 60 h at room temperature, LUC activity by cooled CCD; empty vector as control

binding: binds
B1: cLUC-ADF7 (protein, UniProt Q67ZM4 1-137)
chain: MANAASGMAVEDECKLKFLELKSKRNYRFIIFRIDGQQVVVEKLGNPDETYDDFTASLPANECRYAVFDFDFITDENCQKSKIFFIAWSPDSSRVRMKMVYASSKDRFKRELDGIQVELQATDPSEMSFDIIKSRAL
